The chains are these.
T1: HSA32-HA-TurboID (Arabidopsis thaliana) (UniProt Q8GWL1)
T1 sequence: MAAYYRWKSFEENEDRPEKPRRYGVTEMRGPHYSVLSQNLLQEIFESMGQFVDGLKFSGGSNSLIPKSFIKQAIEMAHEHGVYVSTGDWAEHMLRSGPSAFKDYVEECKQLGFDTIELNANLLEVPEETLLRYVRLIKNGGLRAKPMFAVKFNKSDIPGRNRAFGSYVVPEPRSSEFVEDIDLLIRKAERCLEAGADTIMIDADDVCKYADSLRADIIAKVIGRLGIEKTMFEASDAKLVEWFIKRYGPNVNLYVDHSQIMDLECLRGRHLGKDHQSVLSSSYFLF

Sequences of proteins named here, by UniProt entry; tags and fusion partners are left off. A change or cut given only in a name is not applied to a line headed by its entry.
UniProt P29513: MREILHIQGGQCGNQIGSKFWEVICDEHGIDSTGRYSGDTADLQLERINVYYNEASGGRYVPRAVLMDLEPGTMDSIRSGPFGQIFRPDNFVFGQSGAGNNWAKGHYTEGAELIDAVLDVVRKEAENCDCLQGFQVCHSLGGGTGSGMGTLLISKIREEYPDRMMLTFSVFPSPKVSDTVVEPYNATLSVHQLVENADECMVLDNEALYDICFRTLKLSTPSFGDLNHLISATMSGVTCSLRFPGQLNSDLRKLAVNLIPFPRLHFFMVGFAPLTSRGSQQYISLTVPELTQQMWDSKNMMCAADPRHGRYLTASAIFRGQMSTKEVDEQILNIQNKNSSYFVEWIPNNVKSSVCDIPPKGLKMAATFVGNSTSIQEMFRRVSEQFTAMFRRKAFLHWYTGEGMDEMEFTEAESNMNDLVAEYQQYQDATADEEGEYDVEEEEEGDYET
UniProt Q56WH1: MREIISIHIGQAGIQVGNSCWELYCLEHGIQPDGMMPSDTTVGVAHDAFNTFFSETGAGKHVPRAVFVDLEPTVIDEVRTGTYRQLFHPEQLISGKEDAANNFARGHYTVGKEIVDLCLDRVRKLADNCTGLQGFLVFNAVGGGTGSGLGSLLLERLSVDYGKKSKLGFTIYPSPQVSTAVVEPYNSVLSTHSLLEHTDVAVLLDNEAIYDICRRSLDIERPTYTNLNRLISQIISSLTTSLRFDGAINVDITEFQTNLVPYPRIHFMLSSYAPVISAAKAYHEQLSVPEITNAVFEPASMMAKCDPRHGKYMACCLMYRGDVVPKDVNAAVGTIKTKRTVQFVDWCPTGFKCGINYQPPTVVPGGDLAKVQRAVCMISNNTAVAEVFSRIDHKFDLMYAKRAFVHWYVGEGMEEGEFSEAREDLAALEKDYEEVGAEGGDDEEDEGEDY
UniProt P29511: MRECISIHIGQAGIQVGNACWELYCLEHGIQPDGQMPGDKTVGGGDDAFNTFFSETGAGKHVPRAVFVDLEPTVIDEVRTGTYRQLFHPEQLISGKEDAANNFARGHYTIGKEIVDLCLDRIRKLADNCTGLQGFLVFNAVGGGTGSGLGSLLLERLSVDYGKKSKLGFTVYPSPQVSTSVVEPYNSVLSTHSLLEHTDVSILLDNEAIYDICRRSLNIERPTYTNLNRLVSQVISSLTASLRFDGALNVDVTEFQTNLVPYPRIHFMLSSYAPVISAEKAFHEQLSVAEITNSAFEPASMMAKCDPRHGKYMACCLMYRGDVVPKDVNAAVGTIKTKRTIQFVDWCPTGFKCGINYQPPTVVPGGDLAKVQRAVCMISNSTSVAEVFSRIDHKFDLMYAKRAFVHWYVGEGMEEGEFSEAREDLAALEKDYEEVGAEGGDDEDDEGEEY
UniProt Q9M888: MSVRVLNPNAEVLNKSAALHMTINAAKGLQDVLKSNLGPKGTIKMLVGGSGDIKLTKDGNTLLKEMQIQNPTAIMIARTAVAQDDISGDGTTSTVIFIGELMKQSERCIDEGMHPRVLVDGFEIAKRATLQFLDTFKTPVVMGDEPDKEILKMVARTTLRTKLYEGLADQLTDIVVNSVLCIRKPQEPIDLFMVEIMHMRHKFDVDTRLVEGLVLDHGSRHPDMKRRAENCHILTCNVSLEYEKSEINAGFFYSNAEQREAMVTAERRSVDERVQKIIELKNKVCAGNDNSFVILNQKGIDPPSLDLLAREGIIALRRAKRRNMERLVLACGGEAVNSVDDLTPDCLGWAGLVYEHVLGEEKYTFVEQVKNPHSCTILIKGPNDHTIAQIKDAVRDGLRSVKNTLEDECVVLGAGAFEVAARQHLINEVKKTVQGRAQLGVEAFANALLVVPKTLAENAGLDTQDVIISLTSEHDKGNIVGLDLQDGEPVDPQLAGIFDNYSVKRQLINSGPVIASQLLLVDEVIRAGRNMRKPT

B1: CCT2 (protein, UniProt Q940P8 1-527)
chain: MPIDKIFKDDASEEKGERARMASFVGAMAISDLVKSTLGPKGMDKILQSTGRGHAVTVTNDGATILKSLHIDNPAAKVLVDISKVQDDEVGDGTTSVVVLAGELLREAEKLVASKIHPMTIIAGYRMASECARNALLKRVIDNKDNAEKFRSDLLKIAMTTLCSKILSQDKEHFAEMAVDAVFRLKGSTNLEAIQIIKKPGGSLKDSFLDEGFILDKKIGIGQPKRIENANILVANTAMDTDKVKIYGARVRVDSMTKVAEIEGAEKEKMKDKVKKIIGHGINCFVNRQLIYNFPEELFADAGILAIEHADFEGIERLGLVTGGEIASTFDNPESVKLGHCKLIEEIMIGEDKLIHFSGCEMGQACSIVLRGASHHVLDEAERSLHDALCVLSQTVNDTRVLLGGGWPEMVMAKEVDELARKTAGKKSHAIEAFSRALVAIPTTIADNAGLDSAELVAQLRAEHHTEGCNAGIDVITGAVGDMEERGIYEAFKVKQAVLLSATEASEMILRVDEIITCAPRRREDRM
B2: CCT8 (protein, UniProt Q94K05 1-549)
chain: MVGMSMQPYGIQSMLKEGYRHLSGLDEAVIKNIEACKELSTITRTSLGPNGMNKMVINHLDKLFVTNDAATIVNELEIQHPAAKLLVLAAKAQQEEIGDGANLTISFAGELLQNAEELIRMGLHPSEIISGYTKAVSKAVEILEQLVETGSETMDVRNKDEVISRMRAAVASKQFGQEEIICSLVTDACIQVCPKNPTNFNVDNVRVSKLLGGGLHNSCIVRGMVLKSDAVGSIKRMEKAKVAVFAGGVDTTATETKGTVLIHSAEQLENYAKTEEAKVEELIKAVAESGAKVIVSGGSIGEMALHFCERYKIMVLKISSKFELRRFCRTAGAVAHLKLSRPSPEDLGYVDSISVEEIGGVTVTIARNEEGGNSISTVVLRGSTDSILDDLERAVDDGVNTYKAMCRDSRIVPGAAATEIELAQRLKEYANAEIGLDKYAITKYAESFEFVPKTLADNAGLNAMEIIAALYTGHGSGNTKLGIDLEEGACKDVSETKVWDLFATKLFALKYASDAACTVLRVDQIIMAKPAGGPRRDAAQAAGAGAEED
B3: AtJ3 (protein, UniProt Q94AW8 1-420)
chain: MFGRGPSKKSDNTKFYEILGVPKSASPEDLKKAYKKAAIKNHPDKGGDPEKFKELAQAYEVLSDPEKREIYDQYGEDALKEGMGGGGGGHDPFDIFSSFFGGGPFGGNTSRQRRQRRGEDVVHPLKVSLEDVYLGTMKKLSLSRNALCSKCNGKGSKSGASLKCGGCQGSGMKVSIRQLGPGMIQQMQHACNECKGTGETINDRDRCPQCKGDKVIPEKKVLEVNVEKGMQHSQKITFEGQADEAPDTVTGDIVFVLQQKEHPKFKRKGEDLFVEHTLSLTEALCGFQFVLTHLDGRSLLIKSNPGEVVKPDSYKAISDEGMPIYQRPFMKGKLYIHFTVEFPDSLSPDQTKALEAVLPKPSTAQLSDMEIDECEETTLHDVNIEDEMRRKAQAQREAYDDDDEDDDHPGGAQRVQCAQQ
B4: P23-1 (protein, UniProt Q8L7U4 1-241)
chain: MSRHPEVKWAETTEKIFLTVVLADTKDTKVNLDPEGVFDFSAKVGPENHVYELKLELADKVNVEESKINIGERSIFCIIEKAEPERWNKLLRVKKPPHYVKVDWDKWVDEDDEGSAGAADMDMAGMEGMGGMGGMGGMGGMGGMGGMGGMGGMEGMDFSKLMGGMGGMGGMGGLEGLGGMGGMGGMGGMGGMGGMEEFEDSDDEEETAKSGDKKDDAVKEEGLATEKAPAAEETTSVKEDK
B5: BT4 (protein, UniProt Q9FJX5 1-372)
chain: MVTGCVDLHQSFKSADSSSVPIPPPLPSKSDGLKKKLGHSSVSTATRDMWDRLFNDGYKADVVIYTDNGSIIYAHANILGTASTVIKGMLKQAKRHGKWHTISIRGVPHDAVRVFIRFLYSSCYEKEEMNEFIMHLLLLSHAYVVPQLKRVCEWHLEHGLLTTENVVDVFQLALLCDFPRLSLISHRMIMKHFNELSATEAWTAMKKSHPFLEKEVRDSVIIEANTRKERMRKRNDQRIYSQLYEAMEALVHICRDGCKTIGPHDKDFKPNHATCNYEACKGLESLIRHFAGCKLRVPGGCVHCKRMWQLLELHSRVCAGSDQCRVPLCRNLKEKMEKQSKKDESRWKLLVKNVLGSKKIGGSPFFLPVTNC

No constants are given. Whether binding was seen depends on the method and setting. In cells and extracts the contact can be indirect. A yes stands for co-enrichment or nearness to the bait. Other partners may have been found. Where a sequence is shown, tags or fusion partners need not be part of it.

The target of one test is T1, HSA32-HA-TurboID (Arabidopsis thaliana). As to the kind of experiment: proximity labelling.
Turning to TUBB5 (from UniProt P29513 1-449), the binding result is reported as “binds”.

With IPA1, the binding result is “binds”.

For the molecule TUBA3 (from UniProt Q56WH1 1-450), the binding result was “binds”.

With TUBA6 (from UniProt P29511 1-450), the binding result was “binds”.

Regarding CCT6A/B (from UniProt Q9M888), the binding result is listed as “binds”.

As to LEA25 (from UniProt Q9SIN3), the binding entry was “binds”.

Regarding B1, the binding result is on record as “binds”.

As for B2, the binding result is recorded as “binds”.

Turning to B3, the binding entry is on record as “binds”.

Regarding B4, the binding entry was “binds”.

With B5, the binding result is recorded as “binds”.

The next test shares this target. As to the kind of experiment: proximity labelling. The source holds these as a separate data set.
With B1, the binding result is on record as “binds”.

Take B2: the binding result was “binds”.

In the case of B3, the binding result is given as “binds”.

For the molecule B4, the binding entry is “binds”.

The record behind these values is paper doi:10.1101/2024.10.15.618377.
